Test results published in patent publication US5340591A, “Method of producing a solid dispersion of the sparingly water-soluble drug, nilvadipine” (Fujisawa Pharmaceutical Co., Ltd., priority 1992, dated 1994).
In brackets after ≈: the same amount, converted by molar mass.

Assay: physchem
Details: distilled water

COC(=O)C1=C(C)NC(C)=C(C(=O)OC)C1c1ccccc1[N+](=O)[O-] [nifedipine bulk substance, nifedipine]
solubility: 12 µg/mL (≈ 34.6 µM)
